# The list shows a part of the results.
# B1: SJCP1084 (Schistosoma japonicum) (protein)
# chain: MRIINLVIISTALLLINLLQTKSQANGEDTKNGTPDDPGLTKSTELKVEVQALLKDKKTNMRVKWNENLLDNTKPEYHNLRDEACELLLQIVRSVVPLSQDDGECKDVTFTKYVVGTKDGAVNVKLTITFKDSVAINQKPMDLKLKLENDFKNLQSESTLKATKPTFTVKVEKRLIPISKPQTTPPTTAKNDASKENVGDIGGEDSTVPTAAPATAASANEEKDEGDKDNKDSQHPNVLTSNVNDRNLIIALVALMILAIGVALTAAVKQR
# Tests used:
# Experiment in all cases: glycan array binding signal (z-score within array); higher = stronger binding
# Settings in all cases: glycan notation: IUPAC condensed, linker removed
# Gal(b1-2)Gal = biological target: Gal(b1-2)Gal
# In short: (§1)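 From the Consortium for Functional Glycomics database, 3228 arrays were curated, keeping only those whose protein sequence was available. Binding is given as a within-array Z-score averaged across arrays sharing a protein sequence and across linkers. Negative Z-scores can be read as non-binding.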
# Gal(b1-3)Gal = biological target: Gal(b1-3)Gal
# In short: as §1
# Gal(b1-3)Gal(b1-4)GlcNAc = biological target: Gal(b1-3)Gal(b1-4)GlcNAc
# In short: as §1
# Gal(b1-3)GalNAc = biological target: Gal(b1-3)GalNAc
# In short: as §1
# [1] = biological target: Gal(b1-3)GalNAc(a1-3)[Fuc(a1-2)]Gal(b1-4)Glc
# In short: as §1
# [2] = biological target: Gal(b1-3)GalNAc(a1-3)[Fuc(a1-2)]Gal(b1-4)GlcNAc
# In short: as §1
# Gal(b1-3)GalNAc(b1-3)Gal = biological target: Gal(b1-3)GalNAc(b1-3)Gal
# In short: as §1
# [3] = biological target: Gal(b1-3)GalNAc(b1-3)Gal(a1-4)Gal(b1-4)Glc
# In short: as §1
# [4] = biological target: Gal(b1-3)GalNAc(b1-4)Gal(b1-4)Glc
# In short: as §1
# [5] = biological target: Gal(b1-3)GalNAc(b1-4)[Neu5Ac(a2-3)]Gal(b1-4)Glc
# In short: as §1
# Gal(b1-3)GlcNAc = biological target: Gal(b1-3)GlcNAc
# In short: as §1
# [6] = biological target: Gal(b1-3)GlcNAc(a1-3)Gal(b1-4)GlcNAc
# In short: as §1
# [7] = biological target: Gal(b1-3)GlcNAc(a1-6)Gal(b1-4)GlcNAc
# In short: as §1
# Gal(b1-3)GlcNAc(b1-2)Man = biological target: Gal(b1-3)GlcNAc(b1-2)Man
# In short: as §1
# [8] = biological target: Gal(b1-3)GlcNAc(b1-2)Man(a1-3)[Gal(b1-3)GlcNAc(b1-2)Man(a1-6)]Man(b1-4)GlcNAc(b1-4)GlcNAc
# In short: as §1
# [9] = biological target: Gal(b1-3)GlcNAc(b1-2)Man(a1-3)[Gal(b1-3)GlcNAc(b1-2)Man(a1-6)]Man(b1-4)GlcNAc(b1-4)[Fuc(a1-6)]GlcNAc
# In short: as §1
# [10] = biological target: Gal(b1-3)GlcNAc(b1-2)Man(a1-3)[GlcNAc(b1-4)][Gal(b1-3)GlcNAc(b1-2)Man(a1-6)]Man(b1-4)GlcNAc(b1-4)GlcNAc
# In short: as §1
# [11] = biological target: Gal(b1-3)GlcNAc(b1-2)[Gal(b1-3)GlcNAc(b1-6)]Man(a1-6)[Gal(b1-3)GlcNAc(b1-2)Man(a1-3)]Man(b1-4)GlcNAc(b1-4)GlcNAc
# In short: as §1
# [12] = biological target: Gal(b1-3)GlcNAc(b1-3)Gal(b1-3)GlcNAc
# In short: as §1
# [13] = biological target: Gal(b1-3)GlcNAc(b1-3)Gal(b1-4)Glc
# In short: as §1
# [14] = biological target: Gal(b1-3)GlcNAc(b1-3)Gal(b1-4)GlcNAc
# In short: as §1
# [15] = biological target: Gal(b1-3)GlcNAc(b1-3)Gal(b1-4)GlcNAc(b1-2)Man(a1-3)[Gal(b1-3)GlcNAc(b1-3)Gal(b1-4)GlcNAc(b1-2)Man(a1-6)]Man(b1-4)GlcNAc(b1-4)GlcNAc
# In short: as §1
# [16] = biological target: Gal(b1-3)GlcNAc(b1-3)Gal(b1-4)GlcNAc(b1-2)[Gal(b1-3)GlcNAc(b1-3)Gal(b1-4)GlcNAc(b1-6)]Man(a1-6)[Gal(b1-3)GlcNAc(b1-3)Gal(b1-4)GlcNAc(b1-2)Man(a1-3)]Man(b1-4)GlcNAc(b1-4)[Fuc(a1-6)]GlcNAc
# In short: as §1
# [17] = biological target: Gal(b1-3)GlcNAc(b1-3)Gal(b1-4)GlcNAc(b1-3)Gal(b1-4)GlcNAc(b1-2)[Gal(b1-3)GlcNAc(b1-3)Gal(b1-4)GlcNAc(b1-3)Gal(b1-4)GlcNAc(b1-6)]Man(a1-6)[Gal(b1-3)GlcNAc(b1-3)Gal(b1-4)GlcNAc(b1-3)Gal(b1-4)GlcNAc(b1-2)Man(a1-3)]Man(b1-4)GlcNAc(b1-4)[Fuc(a1-6)]GlcNAc
# In short: as §1
# [18] = biological target: Gal(b1-3)GlcNAc(b1-3)Gal(b1-4)GlcNAc(b1-6)[Gal(b1-3)GlcNAc(b1-3)]Gal(b1-4)Glc
# In short: as §1
# [19] = biological target: Gal(b1-3)GlcNAc(b1-3)Gal(b1-4)[Fuc(a1-3)]GlcNAc
# In short: as §1
# [20] = biological target: Gal(b1-3)GlcNAc(b1-3)Gal(b1-4)[Fuc(a1-3)]GlcNAc(b1-6)[Gal(b1-3)GlcNAc(b1-3)]Gal(b1-4)Glc
# In short: as §1
# [21] = biological target: Gal(b1-3)GlcNAc(b1-3)GalNAc
# In short: as §1
# [22] = biological target: Gal(b1-3)GlcNAc(b1-6)Gal(b1-4)GlcNAc
# In short: as §1
# [23] = biological target: Gal(b1-3)GlcNAc(b1-6)GalNAc
# In short: as §1
# [24] = biological target: Gal(b1-3)GlcNAc(b1-6)[Gal(b1-3)]GalNAc
# In short: as §1
# Gal(b1-3)GlcNAc6S = biological target: Gal(b1-3)GlcNAc6S
# In short: as §1
# [25] = biological target: Gal(b1-3)[Fuc(a1-4)]GlcNAc
# In short: as §1
# [26] = biological target: Gal(b1-3)[Fuc(a1-4)]GlcNAc(b1-2)Man
# In short: as §1
# [27] = biological target: Gal(b1-3)[Fuc(a1-4)]GlcNAc(b1-2)Man(a1-3)[Gal(b1-3)[Fuc(a1-4)]GlcNAc(b1-2)Man(a1-6)]Man(b1-4)GlcNAc(b1-4)[Fuc(a1-6)]GlcNAc
# In short: as §1
# [28] = biological target: Gal(b1-3)[Fuc(a1-4)]GlcNAc(b1-3)Gal(b1-3)[Fuc(a1-4)]GlcNAc
# In short: as §1
# [29] = biological target: Gal(b1-3)[Fuc(a1-4)]GlcNAc(b1-3)Gal(b1-4)[Fuc(a1-3)]GlcNAc
# In short: as §1
binder,measurement,setting,value
B1,glycan array binding signal (z-score),Gal(b1-2)Gal,-0.432
same,glycan array binding signal (z-score),Gal(b1-3)Gal,0.48
same,glycan array binding signal (z-score),Gal(b1-3)Gal(b1-4)GlcNAc,0.899
same,glycan array binding signal (z-score),Gal(b1-3)GalNAc,0.536
same,glycan array binding signal (z-score),[1],0.564
same,glycan array binding signal (z-score),[2],-0.266
same,glycan array binding signal (z-score),Gal(b1-3)GalNAc(b1-3)Gal,-0.96
same,glycan array binding signal (z-score),[3],1.51
same,glycan array binding signal (z-score),[4],0.275
same,glycan array binding signal (z-score),[5],0.579
same,glycan array binding signal (z-score),Gal(b1-3)GlcNAc,-0.357
same,glycan array binding signal (z-score),[6],-0.783
same,glycan array binding signal (z-score),[7],-0.268
same,glycan array binding signal (z-score),Gal(b1-3)GlcNAc(b1-2)Man,-0.355
same,glycan array binding signal (z-score),[8],0.943
same,glycan array binding signal (z-score),[9],0.561
same,glycan array binding signal (z-score),[10],0.08
same,glycan array binding signal (z-score),[11],0.316
same,glycan array binding signal (z-score),[12],-0.391
same,glycan array binding signal (z-score),[13],0.259
same,glycan array binding signal (z-score),[14],-1.31
same,glycan array binding signal (z-score),[15],0.617
same,glycan array binding signal (z-score),[16],0.09
same,glycan array binding signal (z-score),[17],1.59
same,glycan array binding signal (z-score),[18],1.66
same,glycan array binding signal (z-score),[19],-0.553
same,glycan array binding signal (z-score),[20],-0.024
same,glycan array binding signal (z-score),[21],-0.886
same,glycan array binding signal (z-score),[22],-0.008
same,glycan array binding signal (z-score),[23],-0.614
same,glycan array binding signal (z-score),[24],-1.2
same,glycan array binding signal (z-score),Gal(b1-3)GlcNAc6S,-0.01
same,glycan array binding signal (z-score),[25],-0.796
same,glycan array binding signal (z-score),[26],2.49
same,glycan array binding signal (z-score),[27],-1.03
same,glycan array binding signal (z-score),[28],-1.02
same,glycan array binding signal (z-score),[29],-0.185

# No new results follow: entries from further up.
binder,measurement,setting,value
B1,glycan array binding signal (z-score),[27],-1.03
same,glycan array binding signal (z-score),[28],-1.02

# Source: the supplement of paper PMC8728848
